Results taken from patent US7405063B2, “Biooxidation capabilities of Candida sp” (Cognis Corporation, priority 2000, dated 2008).

test system: C. tropicalis H5343; assay: Bioconversion process (Phase 1), shake flask, NMR analysis; type: cell-based; conditions: Phase I screening summary

Row | SMILES | Reaction or Major Reaction Product
1 | C=CCCCCCCCCCC [Dodecene] | (ω,ω-1) Dihydroxy Fatty Acid
2 | C/C=C/CCCCCC [trans-2-nonene] | 2-enoic acid (recovery low)
3 | CCCCCC/C=C/CCCCCC [trans-7-tetradecene] | 7-trans-tetradecenedioic acid
4 | C=CCCCCCCCCCCCC [C14 a-Olefin, 1-tetradecene] | (ω,ω-1) Dihydroxy Fatty Acid
5 | CCCCCCC(O)CCCCCCCCCCC(=O)O (centres unmarked) [12-Hydroxystearic acid] | 7-hydroxyoctadecanedioic acid

The amount applied is not stated for every result.
